Reference: the supplement of paper PMC7661543
The effect of the compound repeats well; differences between the knockouts mostly do not.

Test system: MDA-MB-231
Assay: relative cell number vs DMSO control (72 h) (% of DMSO); higher = less growth inhibition (more cells)
Method: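 QMAP-Seq: a pool of 5 breast cancer cell lines (ZR-75-1, SKBR3, HCC-38, MDA-MB-231, BT-20), each carrying 12 doxycycline-inducible Cas9 sgRNA perturbations (11 knockouts plus non-targeting sgNT), was treated with compounds for 72 h at four 10-fold doses (10 nM-10 uM or 1 nM-1 uM range). Barcodes were amplified and sequenced, and cell number was interpolated from 293T spike-in standard curves. The result is expressed as % of the median of DMSO wells. Two biological replicates.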

CCNC(=O)c1noc(-c2cc(C(C)C)c(O)cc2O)c1-c1ccc(CN2CCOCC2)cc1 [NVPAUY922]
Settings	relative cell number
sgRNA knockout: sgATF3, 1 nM	92.1
sgRNA knockout: sgATF3, 10 nM	63.4
sgRNA knockout: sgATF3, 100 nM	13.9
sgRNA knockout: sgATF3, 1000 nM	16.5
sgRNA knockout: sgATF4, 1 nM	113
sgRNA knockout: sgATF4, 10 nM	87
sgRNA knockout: sgATF4, 100 nM	28.2
sgRNA knockout: sgATF4, 1000 nM	19.24
sgRNA knockout: sgATF6, 1 nM	100
sgRNA knockout: sgATF6, 10 nM	65.2
sgRNA knockout: sgATF6, 100 nM	17.4
sgRNA knockout: sgATF6, 1000 nM	16
sgRNA knockout: sgATG7, 1 nM	94.3
sgRNA knockout: sgATG7, 10 nM	63.6
sgRNA knockout: sgATG7, 100 nM	15.6
sgRNA knockout: sgATG7, 1000 nM	13
sgRNA knockout: sgERN1, 1 nM	104
sgRNA knockout: sgERN1, 10 nM	60.6
sgRNA knockout: sgERN1, 100 nM	19.2
sgRNA knockout: sgERN1, 1000 nM	15
sgRNA knockout: sgHSF1, 1 nM	89.7
sgRNA knockout: sgHSF1, 10 nM	46.6
sgRNA knockout: sgHSF1, 100 nM	17.9
sgRNA knockout: sgHSF1, 1000 nM	10.7
sgRNA knockout: sgHSF2, 1 nM	101
sgRNA knockout: sgHSF2, 10 nM	71.9
sgRNA knockout: sgHSF2, 100 nM	17.1
sgRNA knockout: sgHSF2, 1000 nM	8.61
sgRNA knockout: sgKEAP1, 1 nM	112
sgRNA knockout: sgKEAP1, 10 nM	76.2
sgRNA knockout: sgKEAP1, 100 nM	17.7
sgRNA knockout: sgKEAP1, 1000 nM	10.7
sgRNA knockout: sgNFE2L2, 1 nM	119
sgRNA knockout: sgNFE2L2, 10 nM	86.8
sgRNA knockout: sgNFE2L2, 100 nM	14.4
sgRNA knockout: sgNFE2L2, 1000 nM	13.8
sgRNA knockout: sgSLC35F2, 1 nM	90.8
sgRNA knockout: sgSLC35F2, 10 nM	80
sgRNA knockout: sgSLC35F2, 100 nM	15.1
sgRNA knockout: sgSLC35F2, 1000 nM	9.47
sgRNA knockout: sgXBP1, 1 nM	104
sgRNA knockout: sgXBP1, 10 nM	78.3
sgRNA knockout: sgXBP1, 100 nM	14.9
sgRNA knockout: sgXBP1, 1000 nM	12

O=C(Nc1ccc([N+](=O)[O-])cc1Cl)c1cc(Cl)ccc1O [Niclosamide]
Settings	relative cell number
sgRNA knockout: sgATF3, 10 nM	99.2
sgRNA knockout: sgATF3, 100 nM	104
sgRNA knockout: sgATF3, 1000 nM	97.5
sgRNA knockout: sgATF3, 10000 nM	38.6
sgRNA knockout: sgATF4, 10 nM	96.9
sgRNA knockout: sgATF4, 100 nM	103
sgRNA knockout: sgATF4, 1000 nM	84.5
sgRNA knockout: sgATF4, 10000 nM	40.4
sgRNA knockout: sgATF6, 10 nM	106
sgRNA knockout: sgATF6, 100 nM	98.1
sgRNA knockout: sgATF6, 1000 nM	112
sgRNA knockout: sgATF6, 10000 nM	45.8
sgRNA knockout: sgATG7, 10 nM	91.9
sgRNA knockout: sgATG7, 100 nM	93.2
sgRNA knockout: sgATG7, 1000 nM	90.7
sgRNA knockout: sgATG7, 10000 nM	43.1
sgRNA knockout: sgERN1, 10 nM	85.4
sgRNA knockout: sgERN1, 100 nM	87.6
sgRNA knockout: sgERN1, 1000 nM	87.4
sgRNA knockout: sgERN1, 10000 nM	36.7
sgRNA knockout: sgHSF1, 10 nM	83.5
sgRNA knockout: sgHSF1, 100 nM	99.4
sgRNA knockout: sgHSF1, 1000 nM	88.6
sgRNA knockout: sgHSF1, 10000 nM	35.8
sgRNA knockout: sgHSF2, 10 nM	85.9
sgRNA knockout: sgHSF2, 100 nM	102
sgRNA knockout: sgHSF2, 1000 nM	93.4
sgRNA knockout: sgHSF2, 10000 nM	43.2
sgRNA knockout: sgKEAP1, 10 nM	94.2
sgRNA knockout: sgKEAP1, 100 nM	101
sgRNA knockout: sgKEAP1, 1000 nM	102
sgRNA knockout: sgKEAP1, 10000 nM	50.3
sgRNA knockout: sgNFE2L2, 10 nM	103
sgRNA knockout: sgNFE2L2, 100 nM	95.1
sgRNA knockout: sgNFE2L2, 1000 nM	107
sgRNA knockout: sgNFE2L2, 10000 nM	38.8
sgRNA knockout: sgSLC35F2, 10 nM	85.6
sgRNA knockout: sgSLC35F2, 100 nM	106
sgRNA knockout: sgSLC35F2, 1000 nM	98.9
sgRNA knockout: sgSLC35F2, 10000 nM	39.8
sgRNA knockout: sgXBP1, 10 nM	111
sgRNA knockout: sgXBP1, 100 nM	90.5
sgRNA knockout: sgXBP1, 1000 nM	92.8
sgRNA knockout: sgXBP1, 10000 nM	39.7
